Laboratory results: PubChem BioAssay AID1259405 (NCATS, 2018)

Screen: 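Silenced genes that increase secreted GFP made by CHO cells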 (primary screen)
Cells: Chinese hamster CHO-K1 ovary cells with stable secreted eGFP expression
Reagents: single siRNA against mouse genes, 0.8 pmol siRNA per well (2 µl of 400 nM stock)
Timing: 3 days
Measurement: 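Per-well intracellular GFP measured by laser scanning cytometry, plus viability from ATP luminescence, each relative to plate median of non-targeting control wells, in %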
Direction: GFP, % of control: higher = more GFP per well, higher productivity; viability (ATP), % of control: higher = more viable cells (more ATP)
Call rule: 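a knock-down is called active if GFP reaches 120% or more of non-targeting control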
The deposit covers about 50,000 reagents; shown is a part drawn at random. Over the whole deposit, about 4,000 (8%) are marked active. 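Mouse siRNA library applied to hamster cells; one well for each siRNA.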 Reagents against one gene are numbered here.

Ascl3 (GeneID 56787) #1
- GFP, % of control: 89.7
- viability (ATP), % of control: 94.4
- Outcome: inactive

Ascl3 (GeneID 56787) #2
- GFP, % of control: 92.1
- viability (ATP), % of control: 79.1
- Outcome: inactive

Mbtps2 (GeneID 270669) #1
- GFP, % of control: 81.9
- viability (ATP), % of control: 74
- Outcome: inactive

Mbtps2 (GeneID 270669) #2
- GFP, % of control: 49.1
- viability (ATP), % of control: 52.3
- Outcome: inactive

Mbtps2 (GeneID 270669) #3
- GFP, % of control: 65.6
- viability (ATP), % of control: 46.8
- Outcome: inactive

N4bp2l1 (GeneID 100637) #1
- GFP, % of control: 58.1
- viability (ATP), % of control: 38
- Outcome: inactive

N4bp2l1 (GeneID 100637) #2
- GFP, % of control: 61.9
- viability (ATP), % of control: 89.8
- Outcome: inactive

N4bp2l1 (GeneID 100637) #3
- GFP, % of control: 52.9
- viability (ATP), % of control: 52
- Outcome: inactive

Nxt1 (GeneID 56488) #1
- GFP, % of control: 47.2
- viability (ATP), % of control: 27.6
- Outcome: inactive

Nxt1 (GeneID 56488) #2
- GFP, % of control: 52.2
- viability (ATP), % of control: 79.5
- Outcome: inactive

Nxt1 (GeneID 56488) #3
- GFP, % of control: 38.9
- viability (ATP), % of control: 48
- Outcome: inactive

St14 (GeneID 19143) #1
- GFP, % of control: 66.4
- viability (ATP), % of control: 66
- Outcome: inactive

St14 (GeneID 19143) #2
- GFP, % of control: 60.8
- viability (ATP), % of control: 74.1
- Outcome: inactive

St14 (GeneID 19143) #3
- GFP, % of control: 73.3
- viability (ATP), % of control: 88.3
- Outcome: inactive

Rchy1 (GeneID 68098) #1
- GFP, % of control: 128
- viability (ATP), % of control: 98.3
- Outcome: active

Rchy1 (GeneID 68098) #2
- GFP, % of control: 44.3
- viability (ATP), % of control: 54
- Outcome: inactive

Rchy1 (GeneID 68098) #3
- GFP, % of control: 59.1
- viability (ATP), % of control: 63.1
- Outcome: inactive

Gtpbp1 (GeneID 14904) #1
- GFP, % of control: 82.7
- viability (ATP), % of control: 69.8
- Outcome: inactive

Gtpbp1 (GeneID 14904) #2
- GFP, % of control: 62
- viability (ATP), % of control: 32.5
- Outcome: inactive

Gtpbp1 (GeneID 14904) #3
- GFP, % of control: 87.4
- viability (ATP), % of control: 65.3
- Outcome: inactive

2310022A10Rik (GeneID 66367) #1
- GFP, % of control: 109
- viability (ATP), % of control: 83.2
- Outcome: inactive

2310022A10Rik (GeneID 66367) #2
- GFP, % of control: 59.8
- viability (ATP), % of control: 95.5
- Outcome: inactive

2310022A10Rik (GeneID 66367) #3
- GFP, % of control: 99.7
- viability (ATP), % of control: 105
- Outcome: inactive

Kcnip1 (GeneID 70357) #1
- GFP, % of control: 62.4
- viability (ATP), % of control: 69.6
- Outcome: inactive

Kcnip1 (GeneID 70357) #2
- GFP, % of control: 54.9
- viability (ATP), % of control: 57.1
- Outcome: inactive

Kcnip1 (GeneID 70357) #3
- GFP, % of control: 94.9
- viability (ATP), % of control: 64
- Outcome: inactive

Sox2 (GeneID 20674) #1
- GFP, % of control: 90.1
- viability (ATP), % of control: 87.9
- Outcome: inactive

Sox2 (GeneID 20674) #2
- GFP, % of control: 112
- viability (ATP), % of control: 79
- Outcome: inactive

Sox2 (GeneID 20674) #3
- GFP, % of control: 85.3
- viability (ATP), % of control: 87.7
- Outcome: inactive

Mettl17 (GeneID 52535) #1
- GFP, % of control: 58.7
- viability (ATP), % of control: 59.1
- Outcome: inactive

Mettl17 (GeneID 52535) #2
- GFP, % of control: 74.6
- viability (ATP), % of control: 62.4
- Outcome: inactive

Mettl17 (GeneID 52535) #3
- GFP, % of control: 54.2
- viability (ATP), % of control: 70.7
- Outcome: inactive

Commd9 (GeneID 76501) #1
- GFP, % of control: 67.9
- viability (ATP), % of control: 94.2
- Outcome: inactive

Commd9 (GeneID 76501) #2
- GFP, % of control: 52.7
- viability (ATP), % of control: 75.1
- Outcome: inactive

Commd9 (GeneID 76501) #3
- GFP, % of control: 87.3
- viability (ATP), % of control: 132
- Outcome: inactive

Targets above whose target name starts with R or r (3):
Rchy1 (GeneID 68098) #1
- GFP, % of control: 128
- viability (ATP), % of control: 98.3
- Outcome: active

Rchy1 (GeneID 68098) #2
- GFP, % of control: 44.3
- viability (ATP), % of control: 54
- Outcome: inactive

Rchy1 (GeneID 68098) #3
- GFP, % of control: 59.1
- viability (ATP), % of control: 63.1
- Outcome: inactive

The list goes on:
Rangrf (GeneID 57785) #1
- GFP, % of control: 42.2
- viability (ATP), % of control: 26.9
- Outcome: inactive

Rangrf (GeneID 57785) #2
- GFP, % of control: 85.1
- viability (ATP), % of control: 75.5
- Outcome: inactive

Rangrf (GeneID 57785) #3
- GFP, % of control: 51.4
- viability (ATP), % of control: 51.3
- Outcome: inactive

Adig (GeneID 246747) #1
- GFP, % of control: 45.1
- viability (ATP), % of control: 66.9
- Outcome: inactive

Adig (GeneID 246747) #2
- GFP, % of control: 62.6
- viability (ATP), % of control: 115
- Outcome: inactive

Adig (GeneID 246747) #3
- GFP, % of control: 93.7
- viability (ATP), % of control: 122
- Outcome: inactive

Or52p2 (GeneID 258750) #1
- GFP, % of control: 98.5
- viability (ATP), % of control: 112
- Outcome: inactive

Or52p2 (GeneID 258750) #2
- GFP, % of control: 76.1
- viability (ATP), % of control: 45.9
- Outcome: inactive

Or52p2 (GeneID 258750) #3
- GFP, % of control: 49
- viability (ATP), % of control: 107
- Outcome: inactive

Phc2 (GeneID 54383) #1
- GFP, % of control: 83.5
- viability (ATP), % of control: 92.6
- Outcome: inactive

Phc2 (GeneID 54383) #2
- GFP, % of control: 70.1
- viability (ATP), % of control: 55.7
- Outcome: inactive

Phc2 (GeneID 54383) #3
- GFP, % of control: 90.1
- viability (ATP), % of control: 72.9
- Outcome: inactive

Ripor1 (GeneID 75687) #1
- GFP, % of control: 122
- viability (ATP), % of control: 109
- Outcome: active

Ripor1 (GeneID 75687) #2
- GFP, % of control: 113
- viability (ATP), % of control: 80.2
- Outcome: inactive

Ripor1 (GeneID 75687) #3
- GFP, % of control: 116
- viability (ATP), % of control: 105
- Outcome: inactive

Ubxn2b (GeneID 68053) #1
- GFP, % of control: 47.6
- viability (ATP), % of control: 49.1
- Outcome: inactive

Ubxn2b (GeneID 68053) #2
- GFP, % of control: 58
- viability (ATP), % of control: 78.1
- Outcome: inactive

Ubxn2b (GeneID 68053) #3
- GFP, % of control: 73.2
- viability (ATP), % of control: 69.3
- Outcome: inactive
